Experimental findings from US20200010567A1 are described below.

Sequences of proteins named here, by UniProt entry; tags and fusion partners are left off. A change or cut given only in a name is not applied to a line headed by its entry. Residues count along the entry.
UniProt P10636: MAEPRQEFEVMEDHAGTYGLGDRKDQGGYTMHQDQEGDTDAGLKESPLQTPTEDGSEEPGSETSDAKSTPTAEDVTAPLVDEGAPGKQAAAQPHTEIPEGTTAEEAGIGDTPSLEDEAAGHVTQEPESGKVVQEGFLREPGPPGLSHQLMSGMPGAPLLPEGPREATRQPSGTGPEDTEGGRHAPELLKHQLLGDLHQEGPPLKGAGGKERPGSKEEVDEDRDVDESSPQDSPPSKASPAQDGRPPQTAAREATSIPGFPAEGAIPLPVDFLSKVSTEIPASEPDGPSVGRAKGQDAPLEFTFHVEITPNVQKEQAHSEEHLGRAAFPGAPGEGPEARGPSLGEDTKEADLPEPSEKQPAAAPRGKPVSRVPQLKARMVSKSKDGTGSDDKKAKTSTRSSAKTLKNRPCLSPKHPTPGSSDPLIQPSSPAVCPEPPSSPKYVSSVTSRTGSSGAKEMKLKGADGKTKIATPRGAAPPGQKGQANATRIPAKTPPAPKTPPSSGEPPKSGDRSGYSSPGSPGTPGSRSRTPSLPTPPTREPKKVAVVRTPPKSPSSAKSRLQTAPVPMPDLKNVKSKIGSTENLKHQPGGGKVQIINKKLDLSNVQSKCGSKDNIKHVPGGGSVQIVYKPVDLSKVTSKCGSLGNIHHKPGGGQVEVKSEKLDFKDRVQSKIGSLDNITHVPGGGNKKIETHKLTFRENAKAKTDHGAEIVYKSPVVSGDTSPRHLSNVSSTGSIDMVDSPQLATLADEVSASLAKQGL
UniProt P05067, residues 18-770: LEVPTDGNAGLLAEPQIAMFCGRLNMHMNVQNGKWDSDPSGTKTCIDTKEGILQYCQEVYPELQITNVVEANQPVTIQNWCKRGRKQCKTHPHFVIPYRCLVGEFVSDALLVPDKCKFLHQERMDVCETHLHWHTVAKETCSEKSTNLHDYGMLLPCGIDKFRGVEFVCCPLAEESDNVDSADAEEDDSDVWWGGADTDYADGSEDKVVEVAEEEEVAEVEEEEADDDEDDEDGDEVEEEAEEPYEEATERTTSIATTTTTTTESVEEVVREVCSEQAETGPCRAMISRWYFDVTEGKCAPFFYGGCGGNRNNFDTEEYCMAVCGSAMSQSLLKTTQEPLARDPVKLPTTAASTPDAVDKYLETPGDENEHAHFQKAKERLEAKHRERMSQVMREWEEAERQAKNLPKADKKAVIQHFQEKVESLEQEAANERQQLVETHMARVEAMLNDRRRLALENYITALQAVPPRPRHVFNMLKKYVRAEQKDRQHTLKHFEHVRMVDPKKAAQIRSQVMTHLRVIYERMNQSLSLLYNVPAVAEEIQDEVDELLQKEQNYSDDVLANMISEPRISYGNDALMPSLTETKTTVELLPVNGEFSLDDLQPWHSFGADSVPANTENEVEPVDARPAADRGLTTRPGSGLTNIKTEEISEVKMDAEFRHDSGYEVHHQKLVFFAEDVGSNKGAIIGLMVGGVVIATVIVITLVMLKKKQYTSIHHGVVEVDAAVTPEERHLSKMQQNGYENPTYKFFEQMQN
UniProt Q13148: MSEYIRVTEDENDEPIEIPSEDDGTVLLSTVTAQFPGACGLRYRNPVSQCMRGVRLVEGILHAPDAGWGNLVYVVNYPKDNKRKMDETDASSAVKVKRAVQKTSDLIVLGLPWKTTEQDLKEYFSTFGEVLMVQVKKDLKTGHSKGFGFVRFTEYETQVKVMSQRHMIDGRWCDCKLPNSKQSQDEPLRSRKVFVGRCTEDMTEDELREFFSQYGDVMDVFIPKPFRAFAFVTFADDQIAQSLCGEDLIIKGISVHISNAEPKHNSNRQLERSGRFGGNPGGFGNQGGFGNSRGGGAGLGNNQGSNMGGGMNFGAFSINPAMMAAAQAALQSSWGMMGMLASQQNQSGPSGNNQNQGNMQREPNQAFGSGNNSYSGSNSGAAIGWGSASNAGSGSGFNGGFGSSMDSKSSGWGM
UniProt P02769, residues 25-607: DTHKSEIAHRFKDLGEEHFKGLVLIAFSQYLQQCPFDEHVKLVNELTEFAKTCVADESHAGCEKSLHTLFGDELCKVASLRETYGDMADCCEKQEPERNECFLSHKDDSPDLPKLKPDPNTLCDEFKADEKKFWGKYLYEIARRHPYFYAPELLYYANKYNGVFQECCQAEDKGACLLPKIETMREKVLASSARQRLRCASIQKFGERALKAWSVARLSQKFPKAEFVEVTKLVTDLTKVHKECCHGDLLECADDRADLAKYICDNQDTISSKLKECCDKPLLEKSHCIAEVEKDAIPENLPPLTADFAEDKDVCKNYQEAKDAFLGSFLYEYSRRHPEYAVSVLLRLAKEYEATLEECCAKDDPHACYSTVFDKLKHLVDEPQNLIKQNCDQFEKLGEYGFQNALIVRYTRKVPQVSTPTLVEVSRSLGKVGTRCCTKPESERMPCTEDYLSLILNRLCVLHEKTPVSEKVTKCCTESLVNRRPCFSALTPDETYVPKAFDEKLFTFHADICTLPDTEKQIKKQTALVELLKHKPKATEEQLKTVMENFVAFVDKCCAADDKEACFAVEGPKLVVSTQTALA

Results are given in words; binding and its absence hold for the method and conditions named. Some entries that bind do so weakly or less than the wild type.

For one test, the target named is T1, GP10: H-(GP)10HHHHHH-NH2.
T1 sequence (peptide, C-terminal amide): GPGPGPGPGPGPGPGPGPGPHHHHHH
Kind of test: indirect ELISA, coated His-tagged peptide.

The target of the next test is T2, GP20: H-(GP)20HHHHHH-NH2.
T2 sequence (peptide, C-terminal amide): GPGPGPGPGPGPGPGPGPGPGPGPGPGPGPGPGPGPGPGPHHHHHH
Put plainly: indirect ELISA, coated His-tagged peptide.

A further test concerns the target T3, (GP)15: H-C(GP)15-OH.
T3 sequence (peptide): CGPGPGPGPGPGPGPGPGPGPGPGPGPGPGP
Put plainly: indirect ELISA, coated uncoupled peptide.

Test [1] addresses (GA)15: H-CHHHHHH(GA)15-OH. Kind of test: indirect ELISA, coated uncoupled peptide.
The next test concerns the target Tau (UniProt P10636). Kind of test: indirect ELISA, antibody at 20 nM, fold increase above median.
Test [2] deals with full-length amyloid precursor protein (UniProt P05067). Described as above.
Test [3] deals with transactive response DNA binding protein 43 (UniProt Q13148). The test is described as above.
The target in test [4] is BSA-coupled (GP)15 DPR protein peptide (bovine) (UniProt P02769). Put plainly: indirect ELISA, coated BSA-coupled peptide.
The target is the same in test [5]. Put plainly: Western blot, BSA-coupled peptide.
A further test deals with T4, (PR)15: H-C(PR)15-OH.
T4 sequence (peptide): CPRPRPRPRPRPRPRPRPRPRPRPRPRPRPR
Kind of test: indirect ELISA, coated uncoupled peptide.

The target of test [6] is BSA-coupled (PR)15 DPR protein peptide (bovine) (UniProt P02769). Kind of test: indirect ELISA, coated BSA-coupled peptide.
The target in test [7] is BSA-coupled (GA)15 DPR protein peptide (bovine) (UniProt P02769). Put plainly: Western blot, BSA-coupled peptide.
In test [8] the target is BSA-coupled (PR)15 DPR protein peptide (bovine) (UniProt P02769). Put plainly: Western blot, BSA-coupled peptide.
In another test the target is T5, PA20: H-(PA)20HHHHHH-NH2.
T5 sequence (peptide, C-terminal amide): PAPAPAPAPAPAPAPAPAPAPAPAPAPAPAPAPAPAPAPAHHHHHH
Put plainly: indirect ELISA, coated His-tagged peptide.

The target in a further test is T6, PA5: H-(PA)5HHHHHH-NH2.
T6 sequence (peptide, C-terminal amide): PAPAPAPAPAHHHHHH
Kind of test: indirect ELISA, coated His-tagged peptide.

A further test addresses T7, PA10: H-(PA)10HHHHHH-NH2.
T7 sequence (peptide, C-terminal amide): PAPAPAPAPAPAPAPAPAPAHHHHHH
Kind of test: indirect ELISA, coated His-tagged peptide.

The next test concerns the target T8, (PA)15: H-C(PA)15-OH.
T8 sequence (peptide): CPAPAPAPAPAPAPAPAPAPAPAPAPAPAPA
Kind of test: indirect ELISA, coated uncoupled peptide.

The next test deals with BSA (bovine) (UniProt P02769). Kind of test: indirect ELISA, BSA coated as control, antibody titrated.
In test [9] the target is BSA-coupled (PA)15 DPR protein peptide (bovine) (UniProt P02769). Kind of test: indirect ELISA, coated BSA-coupled peptide.
The target is the same in test [10]. Kind of test: Western blot, BSA-coupled peptide.

B1: NI-308.46E9 (antibody, V domains shown)
VH: QVQLQESGPGLVKPSETLSLTCTVSGASISGSTYYWGWIRQPPGKGLEYIGRIYYSGSTYYNPSLKSRATISVDTSKNQLSLTLSSVTAADTAVYYCVRPFYAGSGNSPFDYWGQGTLVTVSS
VL: CEIVLTQSPATVSVSPGERATLSCRASQSVSTNLAWYQQKPGQPPRLLIYGASTRATGIPARFSGSGSGAEFTLTISSLQSEDFVVYYCQQYNNWPPAFGGGTKVEIK
As to B1, the binding result with GP10: H-(GP)10HHHHHH-NH2 was “binds”; with GP20: H-(GP)20HHHHHH-NH2 it was “binds”; in the test with (GP)15: H-C(GP)15-OH, “binds”; in [1], “binds”; with Tau, “no binding (tested: 20 nM)”; in test [2], “binds”. The binding result in [3], in test [4] and in [5] was “binds” in each case.

B2: NI-308.12A3 (antibody, V domains shown)
VH: EVQLVETGGGLVQPGGSLRLSCVGSGFLFSDFEMDWVRQAPGKGLEWISYISGDGNIIYQTDSVKGRFTISRDNAKNSLFLQMDSLTVEDTAVYYCARDARENCGGDCYSTSFDFWGQGTLVTVSS
VL: DIQMTQSPDSLAVSLGERATINCKSSQSLLYTANNRNYLAWYQKKAGQPPKLLIHWASTRASGVPDRFSGSGSGTDFILTISSLQAEDVAVYFCQHYYNSPRTFGQGTKVEIK
On to B2, for which the binding entry (in the test with (GP)15: H-C(GP)15-OH; in [1]; in test [4]; in test [5]) was “binds” each time.

B3: NI-308.16C10 (antibody, V domains shown)
VH: EVQLVETGGGVVQPGMSLSLSCAATGFTFSSYGMHWVRQGPGKGPEWVAGIWYDGTNKYYGDSVTGRVTISRDNSKNTLFLQMINVRVEDTAVYYCVKDAERVQKWASYIMDVWGQGTTVTVSS
VL: EIVLTQSPGILSLSRGNRVALSCRASRSVNSSYLNWYQQKPGQAPRLLIYGASKRATGISDRFRGTGSGTDFTLTVARLEPEDIAVYYCQHYGAFGQGTKLEIK
For the molecule B3, the binding result (in the test with (PR)15: H-C(PR)15-OH; in [1]; in [6]; in test [7]; in [8]) was “binds” throughout.

B4: NI-308.4M1 (antibody, V domains shown)
VH: EVQLVETGGGVVQPGGSLRLSCEASGFTIGTYAMHWVRQFPGKGLDWVAVISFDGTTEYYTDAVKGRFTISRDNAKNTLYLQMNYLRGDDTAIYFCARDFTSSGETGSWTQVPDLWGQGTLVTVSS
VL: CEIVMTQSPATLSLSPGERATLSCRASQSVTKYLAWYQQKPGQAPRLLIYDVSYRAAGTPARFSGSGSGTDFTLTISSLEPEDFAVYYCHQRSSWPPVTFGGGTKVEIK
As for B4, the binding result with PA20: H-(PA)20HHHHHH-NH2 was “binds”; in the test with PA5: H-(PA)5HHHHHH-NH2, “binds”; in the test with PA10: H-(PA)10HHHHHH-NH2, “binds”; in the test with (PA)15: H-C(PA)15-OH it was “binds”; with BSA (bovine), “no binding (tested: about 4x10^5 pM (last point))”; in test [9], “binds”. Moreover, in test [10], the binding entry was “binds”.
